From article doi:10.1101/2020.07.27.222323
Results are given in words; binding and its absence hold for the method and conditions named. In cells and extracts the contact can be indirect. Some results given as binding are weak or reduced against the parent protein; the word gives no strength. Values belong to the binder of their own block, whether it stands above or below them.

Chains of the proteins cited; added tags and fusions are not shown. Lines headed by an entry give the natural chain unless they say otherwise; changes in a name come on top.
UniProt O95452, whole entry: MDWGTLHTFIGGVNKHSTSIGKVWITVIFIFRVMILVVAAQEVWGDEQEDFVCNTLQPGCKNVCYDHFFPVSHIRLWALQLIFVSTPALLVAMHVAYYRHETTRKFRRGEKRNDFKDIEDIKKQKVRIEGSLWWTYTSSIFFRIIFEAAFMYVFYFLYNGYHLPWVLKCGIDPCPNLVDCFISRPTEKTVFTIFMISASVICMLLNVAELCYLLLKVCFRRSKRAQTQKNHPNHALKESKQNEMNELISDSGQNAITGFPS

Molecular target: Connexin 30 (Cx30, GJB6), Cx30-msfGFP (UniProt O95452)
Experiment: co-IP

binding: binds
B1: TMEM43-p.R372X (domain or fragment, UniProt Q9BTV4 1-371)
chain: MAANYSSTSTRREHVKVKTSSQPGFLERLSETSGGMFVGLMAFLLSFYLIFTNEGRALKTATSLAEGLSLVVSPDSIHSVAPENEGRLVHIIGALRTSKLLSDPNYGVHLPAVKLRRHVEMYQWVETEESREYTEDGQVKKETRYSYNTEWRSEIINSKNFDREIGHKNPSAMAVESFMATAPFVQIGRFFLSSGLIDKVDNFKSLSLSKLEDPHVDIIRRGDFFYHSENPKYPEVGDLRVSFSYAGLSGDDPDLGPAHVVTVIARQRGDQLVPFSTKSGDTLLLLHHGDFSAEEVFHRELRSNSMKTWGLRAAGWMAMFMGLNLMTRILYTLVDWFPVFRDLVNIGLKAFAFCVATSLTLLTVAAGWLFY

binding: binds
B2: Human transmembrane protein 43 (TMEM43), wild type (protein, UniProt Q9BTV4 1-400)
chain: MAANYSSTSTRREHVKVKTSSQPGFLERLSETSGGMFVGLMAFLLSFYLIFTNEGRALKTATSLAEGLSLVVSPDSIHSVAPENEGRLVHIIGALRTSKLLSDPNYGVHLPAVKLRRHVEMYQWVETEESREYTEDGQVKKETRYSYNTEWRSEIINSKNFDREIGHKNPSAMAVESFMATAPFVQIGRFFLSSGLIDKVDNFKSLSLSKLEDPHVDIIRRGDFFYHSENPKYPEVGDLRVSFSYAGLSGDDPDLGPAHVVTVIARQRGDQLVPFSTKSGDTLLLLHHGDFSAEEVFHRELRSNSMKTWGLRAAGWMAMFMGLNLMTRILYTLVDWFPVFRDLVNIGLKAFAFCVATSLTLLTVAAGWLFYRPLWALLIAGLALVPILVARTRVPAKKLE
